Data from the supplement of paper PMC10849652.
The other results are listed elsewhere or left out.

Chains of the proteins cited; added tags and fusions are not shown. Lines headed by an entry give the natural chain unless they say otherwise; changes in a name come on top.
UniProt P51948: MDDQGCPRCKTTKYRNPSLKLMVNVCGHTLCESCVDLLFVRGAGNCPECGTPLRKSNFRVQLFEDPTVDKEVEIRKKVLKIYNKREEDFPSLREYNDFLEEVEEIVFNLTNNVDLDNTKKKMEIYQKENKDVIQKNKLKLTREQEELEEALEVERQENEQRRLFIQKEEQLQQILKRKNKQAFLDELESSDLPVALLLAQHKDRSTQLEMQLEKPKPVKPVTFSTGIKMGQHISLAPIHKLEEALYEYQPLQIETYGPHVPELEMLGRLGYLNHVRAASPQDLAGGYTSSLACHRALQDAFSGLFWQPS
UniProt O95396: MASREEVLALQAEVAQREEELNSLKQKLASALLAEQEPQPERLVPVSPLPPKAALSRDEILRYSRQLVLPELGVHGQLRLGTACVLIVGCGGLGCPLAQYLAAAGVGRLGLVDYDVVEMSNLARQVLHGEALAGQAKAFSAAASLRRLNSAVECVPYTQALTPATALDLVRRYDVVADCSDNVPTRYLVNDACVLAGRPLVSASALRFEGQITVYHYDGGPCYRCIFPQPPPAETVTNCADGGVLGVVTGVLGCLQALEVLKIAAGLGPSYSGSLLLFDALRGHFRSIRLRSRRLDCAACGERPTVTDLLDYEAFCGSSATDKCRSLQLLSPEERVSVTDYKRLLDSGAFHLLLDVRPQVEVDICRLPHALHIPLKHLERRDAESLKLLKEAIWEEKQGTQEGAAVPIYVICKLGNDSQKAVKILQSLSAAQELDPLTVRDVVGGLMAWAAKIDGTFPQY
UniProt Q8NB16: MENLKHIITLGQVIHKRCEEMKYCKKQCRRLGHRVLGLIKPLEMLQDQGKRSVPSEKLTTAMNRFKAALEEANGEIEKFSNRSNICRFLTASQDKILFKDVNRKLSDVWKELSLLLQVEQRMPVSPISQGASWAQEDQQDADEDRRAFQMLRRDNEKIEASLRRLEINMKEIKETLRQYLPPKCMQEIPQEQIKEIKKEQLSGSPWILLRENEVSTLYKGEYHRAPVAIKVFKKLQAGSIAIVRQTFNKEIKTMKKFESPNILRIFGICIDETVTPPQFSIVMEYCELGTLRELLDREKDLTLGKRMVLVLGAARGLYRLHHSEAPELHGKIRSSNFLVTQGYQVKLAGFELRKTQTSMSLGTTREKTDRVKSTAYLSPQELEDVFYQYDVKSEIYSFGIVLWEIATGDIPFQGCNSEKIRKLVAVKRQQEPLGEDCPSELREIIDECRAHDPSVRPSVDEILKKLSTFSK
UniProt Q9HCE1: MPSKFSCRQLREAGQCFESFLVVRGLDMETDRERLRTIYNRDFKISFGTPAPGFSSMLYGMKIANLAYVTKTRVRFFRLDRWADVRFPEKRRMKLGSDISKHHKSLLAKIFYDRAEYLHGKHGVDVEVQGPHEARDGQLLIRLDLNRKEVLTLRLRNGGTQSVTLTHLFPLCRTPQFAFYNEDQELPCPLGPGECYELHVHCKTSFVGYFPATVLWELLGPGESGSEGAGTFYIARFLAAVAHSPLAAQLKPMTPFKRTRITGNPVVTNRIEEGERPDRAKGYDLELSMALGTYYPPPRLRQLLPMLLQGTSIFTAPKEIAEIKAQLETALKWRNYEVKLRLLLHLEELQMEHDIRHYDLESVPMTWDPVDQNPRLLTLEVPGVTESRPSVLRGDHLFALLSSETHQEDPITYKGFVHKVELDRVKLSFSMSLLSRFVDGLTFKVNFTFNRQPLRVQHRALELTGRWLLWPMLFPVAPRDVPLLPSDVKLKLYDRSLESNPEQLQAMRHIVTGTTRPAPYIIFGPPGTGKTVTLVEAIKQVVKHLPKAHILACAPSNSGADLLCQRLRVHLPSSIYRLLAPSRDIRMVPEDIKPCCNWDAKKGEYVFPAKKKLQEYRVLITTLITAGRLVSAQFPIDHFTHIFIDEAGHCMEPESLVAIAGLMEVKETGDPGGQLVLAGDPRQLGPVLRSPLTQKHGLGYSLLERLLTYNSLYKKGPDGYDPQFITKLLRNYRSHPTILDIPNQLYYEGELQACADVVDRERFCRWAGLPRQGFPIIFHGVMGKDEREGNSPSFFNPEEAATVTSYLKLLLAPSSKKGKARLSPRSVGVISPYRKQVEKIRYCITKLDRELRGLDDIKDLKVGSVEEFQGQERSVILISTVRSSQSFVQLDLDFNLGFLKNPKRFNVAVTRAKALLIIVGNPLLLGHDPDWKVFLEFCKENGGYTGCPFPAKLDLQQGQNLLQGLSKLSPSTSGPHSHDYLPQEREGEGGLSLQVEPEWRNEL
UniProt Q9NQG6: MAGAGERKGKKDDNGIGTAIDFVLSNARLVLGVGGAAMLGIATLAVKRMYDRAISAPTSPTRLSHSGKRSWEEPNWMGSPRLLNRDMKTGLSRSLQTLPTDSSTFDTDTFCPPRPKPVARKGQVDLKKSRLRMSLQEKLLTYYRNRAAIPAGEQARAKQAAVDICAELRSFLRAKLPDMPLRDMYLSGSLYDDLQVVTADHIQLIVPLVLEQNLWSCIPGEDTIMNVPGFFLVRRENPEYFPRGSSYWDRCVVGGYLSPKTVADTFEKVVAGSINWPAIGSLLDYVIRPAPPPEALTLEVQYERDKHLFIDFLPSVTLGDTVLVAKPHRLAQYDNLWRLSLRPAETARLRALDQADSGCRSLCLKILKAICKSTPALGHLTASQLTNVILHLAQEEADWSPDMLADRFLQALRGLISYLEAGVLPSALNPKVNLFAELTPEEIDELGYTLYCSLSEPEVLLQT
UniProt Q14149: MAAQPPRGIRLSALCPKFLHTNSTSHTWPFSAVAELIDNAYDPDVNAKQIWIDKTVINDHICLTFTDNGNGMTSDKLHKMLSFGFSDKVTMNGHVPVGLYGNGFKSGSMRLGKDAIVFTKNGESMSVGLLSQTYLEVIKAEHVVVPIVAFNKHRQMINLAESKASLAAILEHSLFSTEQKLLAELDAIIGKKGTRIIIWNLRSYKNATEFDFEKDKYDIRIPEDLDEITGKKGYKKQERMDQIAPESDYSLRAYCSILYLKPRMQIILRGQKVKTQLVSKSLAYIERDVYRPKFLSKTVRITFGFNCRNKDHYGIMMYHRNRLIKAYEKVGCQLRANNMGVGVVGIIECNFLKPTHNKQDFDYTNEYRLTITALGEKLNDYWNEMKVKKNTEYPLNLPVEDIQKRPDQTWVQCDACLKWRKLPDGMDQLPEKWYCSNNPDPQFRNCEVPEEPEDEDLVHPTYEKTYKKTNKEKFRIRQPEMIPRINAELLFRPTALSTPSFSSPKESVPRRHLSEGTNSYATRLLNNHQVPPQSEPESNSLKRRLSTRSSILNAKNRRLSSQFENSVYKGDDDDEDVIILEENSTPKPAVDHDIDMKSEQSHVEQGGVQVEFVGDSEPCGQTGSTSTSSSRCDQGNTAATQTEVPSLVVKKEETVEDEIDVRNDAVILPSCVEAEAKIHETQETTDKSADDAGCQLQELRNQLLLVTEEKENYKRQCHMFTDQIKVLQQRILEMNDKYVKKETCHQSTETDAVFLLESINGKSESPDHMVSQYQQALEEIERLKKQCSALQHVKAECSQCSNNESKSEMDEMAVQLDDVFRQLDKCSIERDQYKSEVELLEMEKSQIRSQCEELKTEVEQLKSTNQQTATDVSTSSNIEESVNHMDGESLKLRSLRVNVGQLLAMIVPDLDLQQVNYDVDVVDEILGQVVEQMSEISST
UniProt Q8N3F8: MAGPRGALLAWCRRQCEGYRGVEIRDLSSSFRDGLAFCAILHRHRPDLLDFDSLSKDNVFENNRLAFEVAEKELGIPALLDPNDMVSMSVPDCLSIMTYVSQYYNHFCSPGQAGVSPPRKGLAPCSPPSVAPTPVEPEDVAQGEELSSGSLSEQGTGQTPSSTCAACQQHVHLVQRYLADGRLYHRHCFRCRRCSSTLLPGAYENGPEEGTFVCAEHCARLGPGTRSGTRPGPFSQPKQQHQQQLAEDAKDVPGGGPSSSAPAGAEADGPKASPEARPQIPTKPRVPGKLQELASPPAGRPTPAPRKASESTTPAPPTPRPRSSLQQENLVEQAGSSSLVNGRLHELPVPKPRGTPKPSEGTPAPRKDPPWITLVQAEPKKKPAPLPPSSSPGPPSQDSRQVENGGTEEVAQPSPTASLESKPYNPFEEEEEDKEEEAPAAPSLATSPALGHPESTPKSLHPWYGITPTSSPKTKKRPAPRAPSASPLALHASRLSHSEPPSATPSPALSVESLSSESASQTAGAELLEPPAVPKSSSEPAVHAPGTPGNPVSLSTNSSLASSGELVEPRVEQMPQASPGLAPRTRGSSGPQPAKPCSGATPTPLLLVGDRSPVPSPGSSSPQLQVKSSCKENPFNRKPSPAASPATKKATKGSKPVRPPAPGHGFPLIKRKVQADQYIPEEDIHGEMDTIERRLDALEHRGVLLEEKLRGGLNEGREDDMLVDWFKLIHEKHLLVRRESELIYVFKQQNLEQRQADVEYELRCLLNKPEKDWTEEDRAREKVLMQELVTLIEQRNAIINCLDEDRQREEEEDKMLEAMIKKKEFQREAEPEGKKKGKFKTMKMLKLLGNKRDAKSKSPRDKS
UniProt Q8N4C8: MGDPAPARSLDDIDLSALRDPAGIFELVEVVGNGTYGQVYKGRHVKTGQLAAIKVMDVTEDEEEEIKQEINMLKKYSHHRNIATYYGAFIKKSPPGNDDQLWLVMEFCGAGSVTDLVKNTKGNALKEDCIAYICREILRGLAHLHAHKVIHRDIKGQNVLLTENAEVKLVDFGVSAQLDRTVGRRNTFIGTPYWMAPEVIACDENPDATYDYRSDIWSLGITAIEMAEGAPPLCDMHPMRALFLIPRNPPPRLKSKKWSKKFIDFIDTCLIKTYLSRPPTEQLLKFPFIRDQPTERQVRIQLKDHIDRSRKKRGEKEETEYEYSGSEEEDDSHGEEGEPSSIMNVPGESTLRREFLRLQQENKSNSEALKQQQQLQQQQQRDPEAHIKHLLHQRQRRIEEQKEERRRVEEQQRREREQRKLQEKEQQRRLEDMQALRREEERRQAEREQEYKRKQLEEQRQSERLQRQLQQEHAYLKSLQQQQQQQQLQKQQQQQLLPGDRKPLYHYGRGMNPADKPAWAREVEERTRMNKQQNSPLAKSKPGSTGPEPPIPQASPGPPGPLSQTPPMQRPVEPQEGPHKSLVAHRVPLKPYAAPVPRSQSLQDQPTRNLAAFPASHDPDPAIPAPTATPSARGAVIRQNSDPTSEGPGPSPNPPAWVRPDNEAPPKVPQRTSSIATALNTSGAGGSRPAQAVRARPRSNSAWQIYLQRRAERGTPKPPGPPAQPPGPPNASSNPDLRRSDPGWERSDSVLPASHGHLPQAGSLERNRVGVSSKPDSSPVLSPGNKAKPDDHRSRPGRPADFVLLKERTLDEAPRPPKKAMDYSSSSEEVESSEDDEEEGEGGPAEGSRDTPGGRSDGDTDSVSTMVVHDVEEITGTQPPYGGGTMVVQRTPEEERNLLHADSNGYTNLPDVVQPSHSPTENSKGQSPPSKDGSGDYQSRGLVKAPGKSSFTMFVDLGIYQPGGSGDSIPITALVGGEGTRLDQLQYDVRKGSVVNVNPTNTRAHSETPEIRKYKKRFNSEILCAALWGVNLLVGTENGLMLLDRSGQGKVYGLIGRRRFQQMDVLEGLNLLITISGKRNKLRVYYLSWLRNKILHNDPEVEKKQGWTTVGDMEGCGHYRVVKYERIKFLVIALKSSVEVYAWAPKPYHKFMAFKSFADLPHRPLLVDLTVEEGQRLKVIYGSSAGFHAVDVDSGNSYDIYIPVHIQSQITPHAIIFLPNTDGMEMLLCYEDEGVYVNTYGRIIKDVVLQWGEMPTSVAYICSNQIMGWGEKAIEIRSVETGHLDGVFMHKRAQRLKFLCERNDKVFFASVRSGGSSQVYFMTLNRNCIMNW
UniProt O00566: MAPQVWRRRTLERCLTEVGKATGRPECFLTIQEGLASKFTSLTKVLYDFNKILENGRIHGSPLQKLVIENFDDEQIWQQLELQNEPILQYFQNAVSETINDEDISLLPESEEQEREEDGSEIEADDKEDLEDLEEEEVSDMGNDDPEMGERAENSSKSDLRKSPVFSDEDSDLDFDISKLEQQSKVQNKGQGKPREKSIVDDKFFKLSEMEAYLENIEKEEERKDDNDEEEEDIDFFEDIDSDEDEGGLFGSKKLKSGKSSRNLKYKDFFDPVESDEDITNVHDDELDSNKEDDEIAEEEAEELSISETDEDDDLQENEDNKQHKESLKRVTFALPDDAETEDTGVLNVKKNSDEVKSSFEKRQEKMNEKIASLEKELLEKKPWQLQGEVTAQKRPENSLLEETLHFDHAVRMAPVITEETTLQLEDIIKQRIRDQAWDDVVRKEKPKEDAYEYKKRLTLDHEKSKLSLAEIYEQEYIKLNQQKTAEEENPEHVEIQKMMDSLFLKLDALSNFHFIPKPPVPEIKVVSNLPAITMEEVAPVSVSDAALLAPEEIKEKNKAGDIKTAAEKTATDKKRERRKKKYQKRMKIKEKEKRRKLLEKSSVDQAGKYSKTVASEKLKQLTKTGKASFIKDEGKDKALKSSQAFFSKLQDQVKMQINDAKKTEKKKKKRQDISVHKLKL

Columns and labels:
Assay in all cases: log2 fold change, soluble protein after heating vs DMSO (PISA); higher = thermal stabilisation; K562 cells, 10 uM, 30 min; active = over 0.2 and 3.5 SD of the protein, either way, in both replicates (recomputed)
[1] = compound: CS(=O)(=O)c1ccc(-c2cnc(N)c(C(=O)Nc3ccccc3)n2)cc1
Summary of the method: (§1)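 K562 cells (2×10^6 cells/mL) were treated with 10 μM compound for 30 min, and aliquots were heated for 3 min over 48°C-58°C. Pooled aliquots were extracted in PBS with 0.5% NP-40 at 4°C, and the supernatant after 21,000xg for 90 min was measured by TMTpro 16plex LC-MS/MS with channel sums equalised. Reported thermal stability, relative to control samples and from duplicates, is a log2 fold change.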

[2] = compound: C[C@@H](Oc1cc(-c2cnn(C3CCNCC3)c2)cnc1N)c1c(Cl)ccc(F)c1Cl [crizotinib]
Summary of the method: as §1

[3] = compound: C[C@@H]1COCCN1C2=NC(=NC(=C2)C3(CC3)S(=O)(=O)C)C4=C5C=CNC5=CC=C4
Summary of the method: as §1

[4] = compound: C[C@H](C1=CC=C(C=C1)C(=O)NC2=C3C=CNC3=NC=C2)N
Summary of the method: as §1

[5] = compound: C[C@H](Nc1ncnc2nc[nH]c12)c1cc2cccc(Cl)c2c(=O)n1-c1ccccc1 [duvelisib]
Summary of the method: as §1

[6] = compound: Cc1cc(Nc2cc(CN3CCOCC3)c3nc(C)c(Cc4ccc(Cl)cc4F)n3n2)n[nH]1 [gandotinib]
Summary of the method: as §1

[7] = compound: Cc1cc(Nc2cc(N3CCN(C)CC3)nc(Sc3ccc(NC(=O)C4CC4)cc3)n2)n[nH]1 [tozasertib]
Summary of the method: as §1

[8] = compound: Cc1cc(SCc2sc(-c3ccc(C(F)(F)F)cc3)nc2C)ccc1OCC(=O)O
Summary of the method: as §1

[9] = compound: Cc1ccc(-n2nc(C(C)(C)C)cc2NC(=O)Nc2ccc(OCCN3CCOCC3)c3ccccc23)cc1 [doramapimod]
Summary of the method: as §1

[10] = compound: Cc1ccc(C(=O)N(CCCN)[C@@H](c2nc3cc(Cl)ccc3c(=O)n2Cc2ccccc2)C(C)C)cc1 [ispinesib]
Summary of the method: as §1

[11] = compound: Cc1ccc(NC(=O)c2ccc(CN3CC[C@H](N(C)C)C3)c(C(F)(F)F)c2)cc1Nc1nccc(-c2cncnc2)n1 [bafetinib]
Summary of the method: as §1

[12] = compound: Cc1cccc(CC(=O)N2CCc3c2ccc(-c2cn(C)c4ncnc(N)c24)c3F)n1
Summary of the method: as §1

[13] = compound: Cc1cn(-c2cc(NC(=O)c3ccc(C)c(Nc4nccc(-c5cccnc5)n4)c3)cc(C(F)(F)F)c2)cn1 [nilotinib]
Summary of the method: as §1

[14] = compound: Cc1nc(Nc2n[nH]c3c2CN(C(=O)N[C@H](CN(C)C)c2ccccc2)C3(C)C)c2sccc2n1
Summary of the method: as §1

[15] = compound: Cc1nc(Nc2ncc(C(=O)Nc3c(C)cccc3Cl)s2)cc(N2CCN(CCO)CC2)n1 [dasatinib]
Summary of the method: as §1

[16] = compound: Cc1ncc(-c2ccnc(Nc3ccc(S(C)(=O)=O)cc3)n2)n1C(C)C
Summary of the method: as §1

[17] = compound: Cn1cc(-c2ccc3c(c2)CCN3C(=O)Cc2cccc(C(F)(F)F)c2)c2c(N)ncnc21
Summary of the method: as §1

[18] = compound: Cn1cc(-c2ccc3nnc(C(F)(F)c4ccc5ncccc5c4)n3n2)cn1
Summary of the method: as §1

[19] = compound: Cn1cncc1[C@@](N)(c1ccc(Cl)cc1)c1ccc2c(c1)c(-c1cccc(Cl)c1)cc(=O)n2C [tipifarnib]
Summary of the method: as §1

[20] = compound: FC(F)(F)c1ccc(/C=C/c2nc(COc3ccc(CCCCn4ccnn4)cc3)co2)cc1 [mubritinib]
Summary of the method: as §1

Row | Target | log2 fold change [1] | log2 fold change [2] | log2 fold change [3] | log2 fold change [4] | log2 fold change [5] | log2 fold change [6] | log2 fold change [7] | log2 fold change [8] | log2 fold change [9] | log2 fold change [10] | log2 fold change [11] | log2 fold change [12] | log2 fold change [13] | log2 fold change [14] | log2 fold change [15] | log2 fold change [16] | log2 fold change [17] | log2 fold change [18] | log2 fold change [19] | log2 fold change [20]
1 | MRPL4 (UniProt Q9BYD3) | inactive: -0.033 | inactive: 0.047 | inactive: -0.087 | inactive: 0.165 | inactive: -0.084 | inactive: 0.181 | inactive: 0.048 | inactive: 0.041 | inactive: 0.041 | inactive: -0.141 | inactive: 0.129 | inactive: 0.053 | inactive: -0.001 | inactive: 0.061 | inactive: 0.071 | inactive: 0.036 | inactive: -0.164 | inactive: -0.078 | inactive: 0.047 | inactive: 0.062
2 | MNAT1 (UniProt P51948) | inactive: 0.007 | inactive: 0.02 | inactive: -0.068 | inactive: -0.036 | – | inactive: 0.024 | – | inactive: 0.005 | inactive: -0.057 | inactive: 0.089 | inactive: -0.072 | inactive: 0.011 | inactive: -0.033 | inactive: 0.023 | inactive: -0.002 | inactive: -0.031 | inactive: 0.018 | inactive: 0 | inactive: 0.025 | inactive: 0.032
3 | MOCS3 (UniProt O95396) | inactive: -0.031 | inactive: 0.026 | inactive: 0.173 | inactive: -0.005 | – | inactive: 0.013 | inactive: -0.017 | – | inactive: 0.016 | – | inactive: 0.036 | inactive: -0.032 | inactive: -0.102 | inactive: -0.042 | – | inactive: 0.037 | inactive: -0.145 | – | inactive: -0.016 | inactive: -0.147
4 | MIEF1 (UniProt L0R8F8) | inactive: -0.023 | inactive: 0.068 | inactive: -0.067 | inactive: -0.065 | – | inactive: -0.062 | – | inactive: -0.025 | inactive: -0.04 | inactive: -0.03 | inactive: -0.077 | inactive: -0.001 | inactive: -0.1 | inactive: 0.067 | inactive: 0.001 | inactive: -0.093 | inactive: 0.022 | inactive: -0.053 | inactive: -0.03 | inactive: -0.039
5 | MLKL (UniProt Q8NB16) | inactive: -0.059 | inactive: -0.05 | inactive: -0.016 | inactive: -0.077 | – | inactive: -0.16 | inactive: -0.045 | – | inactive: -0.023 | – | – | inactive: 0.156 | – | – | – | – | inactive: 0.047 | – | inactive: -0.208 | –
6 | MOV10 (UniProt Q9HCE1) | inactive: -0.086 | inactive: 0.032 | inactive: -0.258 | inactive: 0.254 | – | inactive: 0.239 | – | inactive: -0.023 | inactive: 0.103 | inactive: -0.093 | inactive: 0.068 | inactive: 0 | inactive: 0.035 | inactive: 0.041 | inactive: 0.111 | inactive: 0.068 | inactive: -0.055 | inactive: -0.101 | inactive: 0.091 | inactive: -0.014
7 | MIEF1 (UniProt Q9NQG6) | inactive: 0.088 | active: -0.31 | inactive: -0.005 | inactive: -0.046 | – | inactive: 0.095 | – | inactive: 0.065 | inactive: 0.007 | active: -0.489 | inactive: -0.133 | inactive: 0.006 | inactive: 0.022 | inactive: -0.04 | inactive: -0.028 | inactive: 0.145 | inactive: 0.09 | inactive: 0.064 | inactive: -0.039 | inactive: -0.029
8 | MORC3 (UniProt Q14149) | inactive: 0.058 | inactive: 0.052 | inactive: 0.197 | inactive: -0.106 | – | inactive: -0.017 | – | inactive: 0.122 | inactive: -0.067 | inactive: 0.041 | inactive: -0.014 | inactive: 0.009 | inactive: -0.173 | inactive: 0.09 | inactive: -0.154 | inactive: 0.105 | inactive: 0.011 | inactive: -0.026 | inactive: 0.006 | inactive: -0.212
9 | MMS19 isoform 8 (UniProt Q96T76) | inactive: 0.002 | inactive: -0.156 | inactive: 0.023 | inactive: 0.053 | – | inactive: -0.129 | – | inactive: 0.103 | inactive: 0.033 | inactive: -0.035 | inactive: -0.014 | inactive: 0.092 | inactive: -0.038 | inactive: -0.027 | inactive: -0.205 | inactive: -0.002 | inactive: -0.021 | inactive: 0.02 | inactive: -0.055 | inactive: -0.019
10 | MRPL47 (UniProt Q9HD33) | inactive: 0.039 | inactive: 0.019 | inactive: -0.087 | inactive: 0.261 | – | active: 0.625 | – | inactive: 0.095 | inactive: 0.11 | inactive: -0.237 | inactive: 0.264 | inactive: -0.263 | inactive: -0.124 | inactive: 0.118 | inactive: 0.016 | inactive: 0.073 | inactive: -0.174 | inactive: -0.085 | inactive: 0.103 | inactive: -0.029
11 | MICALL1 (UniProt Q8N3F8) | inactive: 0.041 | inactive: -0.005 | inactive: 0.065 | inactive: 0.12 | inactive: 0.111 | inactive: -0.241 | inactive: -0.046 | inactive: -0.031 | inactive: 0.14 | inactive: -0.153 | – | inactive: -0.068 | inactive: 0.056 | inactive: -0.028 | inactive: 0.014 | inactive: -0.045 | inactive: -0.08 | inactive: 0.038 | inactive: 0.051 | inactive: -0.093
12 | MINK1 (UniProt Q8N4C8) | inactive: 0.032 | inactive: -0.207 | inactive: -0.038 | inactive: -0.067 | – | inactive: -0.024 | – | inactive: 0.073 | inactive: -0.035 | inactive: -0.032 | inactive: -0.031 | inactive: -0.04 | inactive: -0.025 | inactive: -0.062 | active: -0.222 | inactive: -0.09 | inactive: 0.02 | inactive: -0.042 | inactive: 0.018 | inactive: 0.014
13 | MIF (UniProt P14174) | inactive: -0.027 | inactive: 0.025 | inactive: 0.111 | inactive: -0.048 | – | inactive: 0.079 | – | inactive: -0.025 | inactive: -0.019 | inactive: 0.055 | inactive: 0.012 | inactive: 0.034 | inactive: 0.088 | inactive: 0 | inactive: 0.052 | inactive: -0.052 | inactive: 0.067 | inactive: 0.076 | inactive: -0.029 | inactive: 0.021
14 | MRPL3 (UniProt P09001) | inactive: 0.026 | inactive: 0.045 | inactive: -0.006 | inactive: 0.243 | inactive: -0.039 | inactive: 0.089 | inactive: 0.015 | inactive: 0.211 | inactive: 0.089 | inactive: -0.096 | inactive: 0.245 | inactive: 0.118 | inactive: -0.112 | inactive: 0.268 | inactive: 0.033 | inactive: -0.024 | inactive: -0.142 | inactive: -0.028 | inactive: 0.049 | inactive: 0.049
15 | MIER1 isoform 12 (UniProt Q8N108) | inactive: 0.009 | inactive: -0.027 | inactive: 0.035 | inactive: -0.034 | – | inactive: -0.004 | – | inactive: 0.035 | inactive: 0.026 | inactive: -0.029 | inactive: -0.016 | inactive: 0.031 | inactive: 0.012 | inactive: -0.083 | inactive: -0.028 | inactive: -0.061 | inactive: 0.056 | inactive: -0.041 | inactive: -0.004 | inactive: 0.052
16 | MPHOSPH10 (UniProt O00566) | inactive: -0.083 | inactive: 0.026 | inactive: -0.25 | inactive: 0.353 | – | inactive: 0.189 | – | inactive: -0.046 | inactive: 0.049 | inactive: -0.023 | inactive: 0.137 | inactive: -0.045 | inactive: -0.055 | inactive: -0.028 | inactive: 0.138 | inactive: -0.199 | inactive: -0.259 | inactive: -0.001 | inactive: 0.246 | inactive: -0.069
17 | MRPL46 (UniProt Q9H2W6) | inactive: 0.042 | inactive: 0.039 | inactive: -0.019 | inactive: 0.186 | – | inactive: 0.026 | – | inactive: 0.054 | inactive: 0.06 | inactive: -0.157 | inactive: 0.06 | inactive: 0.014 | inactive: -0.03 | inactive: -0.002 | inactive: -0.006 | inactive: -0.016 | inactive: -0.019 | inactive: 0.06 | inactive: 0.095 | inactive: -0.003

Just log2 fold change [10], log2 fold change [9] and log2 fold change [18] (two entries from above):
Row	Target	log2 fold change [10]	log2 fold change [9]	log2 fold change [18]
14	MRPL3 (UniProt P09001)	inactive: -0.096	inactive: 0.089	inactive: -0.028
15	MIER1 isoform 12 (UniProt Q8N108)	inactive: -0.029	inactive: 0.026	inactive: -0.041
